Values of other authors as cited in patent US7674819B2 (Warner-Lambert Company LLC, priority 2005, dated 2010).
At least one structure is not confirmed: it was looked up by name or label, or the drawing left a doubt.

Key:
[1] = system: hair growth; conditions: Tosti, Dermatologica 1986; cited from earlier work
[2] = system: hair growth; conditions: 83 males, topical solution of 3% minoxidil, 19 months; cited from earlier work

Q: For `Nc1cc(N2CCCCC2)nc(N)[n+]1[O-]` [minoxidil], which “subjects with cosmetically acceptable re-growth” value [1] is on record?
A: 18.1%

Q: What about the “subjects in whom hair growth occurred” value [2] of the same compound?
A: 55%

Q: What about the “subjects who considered the growth cosmetically relevant” value [2] of the same compound?
A: 20%
